# Test results as given in publication doi:10.1101/2025.07.28.666126.
# These are yes or no findings as the source states them, for the method shown. In cells and extracts the contact can be indirect. A yes stands for co-enrichment or nearness to the bait. Other partners may have been found.
# B1: CDK4, P11802 1-303 (protein)
# chain: MATSRYEPVAEIGVGAYGTVYKARDPHSGHFVALKSVRVPNGGGGGGGLPISTVREVALLRRLEAFEHPNVVRLMDVCATSRTDREIKVTLVFEHVDQDLRTYLDKAPPPGLPAETIKDLMRQFLRGLDFLHANCIVHRDLKPENILVTSGGTVKLADFGLARIYSYQMALTPVVVTLWYRAPEVLLQSTYATPVDMWSVGCIFAEMFRRKPLFCGNSEADQLGKIFDLIGLPPEDDWPRDVSLPRGAFPPRGPRPVQSVVPEMEESGAQLLLEMLTFNPHKRISAFRALQHSYLHKDEGNPE
# Biological target: Flag p21 WT, P38936
# Assay: affinity purification with mass spectrometry
# Details: remark: other sources report otherwise
binder,measurement,value
B1,binding,binds
